The source of these data is patent publication US8034930B2, “Boron-dipyrrin compounds comprising thienyl groups, preparation method thereof and chemosensor comprising the same” (Korea Advanced Institute of Science and Technology, priority 2008, dated 2011).

Some compounds share one wording; it may come from a single statement.

Data set [1] in a line: Selectivities to metal ions by UV-IR absorption and fluorescence spectroscopy (Hg^2+). As to conditions: for alteration of UV-IR absorption spectrum for Hg^2+: compound 1×10^−5 molar in CH3CN, metal perchlorate, ratio 1:1.
A short description of data set [2]: Hg^2+ detection limit, UV-IR absorption spectrum. The conditions noted are these: equates to 20 μL of 1×10^−3 molar Hg^2+ solution; compound 1×10^−5 molar in CH3CN.
Data set [3] in a line: Cu^2+ bonding reversibility with Na4EDTA, UV-IR spectroscopy. As to conditions: for appearance of solution on addition of EDTA: compound 5×10^−5 molar in CH3CN, Na4EDTA in distilled water.
Data set [4] is described as follows: Selectivities to metal ions by UV-IR absorption and fluorescence spectroscopy (Cu^2+). As to conditions: CH3CN solution.

With “3-(3-thienyl)-4,4-di(3-thienyl)-8-(3-thienyl)-4-bora-3a,4a-diaza-s-indacene [5b]”, in data set [1], the “alteration of UV-IR absorption spectrum for Hg^2+” value (“alteration … for Hg^2+” below) is listed as “alteration was much less, compared to compound (4b)”. Besides, the “Hg^2+ detection limit” value in data set [2] is listed as 1.7 ppm. Also, the “appearance of solution on addition of EDTA” value in data set [3] is “became muddy”.
In the case of `C1=CC2=C(c3cccs3)c3ccc(-c4cccs4)n3[B-](c3cccs3)(c3cccs3)[N+]2=C1` [4a, 3-(2-thienyl)-4,4-di(2-thienyl)-8-(2-thienyl)-4-bora-3a,4a-diaza-s-indacene], the “alteration … for Hg^2+” value in data set [1] is listed as “alteration was much less, compared to compound (4b)”. The “Hg^2+ detection limit” value in data set [2] amounted to 1.7 ppm.
Take `C1=CC2=C(c3ccsc3)c3ccc(-c4cccs4)n3[B-](c3cccs3)(c3cccs3)[N+]2=C1` [4b, 3-(2-thienyl)-4,4-di(2-thienyl)-8-(3-thienyl)-4-bora-3a,4a-diaza-s-indacene]: in data set [4], the “color variation dependent on Cu^2+ content” value was “from pink to colorless” and the “fluorescent levels by UV radiation with Cu^2+” value is given as “increase of fluorescent levels”. In addition, the “influence of added Hg^2+ on variation of colors and alteration of fluorescent levels” value in data set [1] (CH3CN solution) is recorded as “less influence”. In addition, the “alteration … for Hg^2+” value in data set [1] is “slightly observed”. The “Hg^2+ detection limit” value in data set [2] is listed as 1.7 ppm. Besides, the “absorption spectrum pattern after EDTA addition to compound combined with Cu^2+ (bonding reversibility)” value in data set [3] (Cu^2+ 15 times, Na4EDTA 30 times compound, CH3CN) is “not exactly identical to the original pattern”. In data set [3], the “appearance of solution on addition of EDTA” value is “became muddy”.
Regarding `C1=CC2=C(c3cccs3)c3ccc(-c4ccsc4)n3[B-](c3ccsc3)(c3ccsc3)[N+]2=C1` [5a, 3-(3-thienyl)-4,4-di(3-thienyl)-8-(2-thienyl)-4-bora-3a,4a-diaza-s-indacene], in data set [1], the “alteration … for Hg^2+” value was “alteration was much less, compared to compound (4b)”. Moreover, in data set [2], the “Hg^2+ detection limit” value was found to be 1.7 ppm.
